This passage reports binding results from doi:10.1101/769059.

The chains behind the UniProt entries cited, without tags or fusion partners. Where a name states a change or a piece, a line headed by the entry shows the natural chain unless it says otherwise. Residues count along the entry.
UniProt Q99J83: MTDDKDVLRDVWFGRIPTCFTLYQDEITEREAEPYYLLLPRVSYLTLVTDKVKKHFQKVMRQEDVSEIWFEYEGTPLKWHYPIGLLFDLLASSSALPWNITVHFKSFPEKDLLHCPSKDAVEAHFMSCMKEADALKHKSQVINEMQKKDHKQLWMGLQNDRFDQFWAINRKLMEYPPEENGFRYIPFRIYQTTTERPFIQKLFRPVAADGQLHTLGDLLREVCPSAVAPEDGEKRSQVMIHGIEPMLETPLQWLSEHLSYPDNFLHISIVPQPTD
UniProt Q07113, residues 36-2483: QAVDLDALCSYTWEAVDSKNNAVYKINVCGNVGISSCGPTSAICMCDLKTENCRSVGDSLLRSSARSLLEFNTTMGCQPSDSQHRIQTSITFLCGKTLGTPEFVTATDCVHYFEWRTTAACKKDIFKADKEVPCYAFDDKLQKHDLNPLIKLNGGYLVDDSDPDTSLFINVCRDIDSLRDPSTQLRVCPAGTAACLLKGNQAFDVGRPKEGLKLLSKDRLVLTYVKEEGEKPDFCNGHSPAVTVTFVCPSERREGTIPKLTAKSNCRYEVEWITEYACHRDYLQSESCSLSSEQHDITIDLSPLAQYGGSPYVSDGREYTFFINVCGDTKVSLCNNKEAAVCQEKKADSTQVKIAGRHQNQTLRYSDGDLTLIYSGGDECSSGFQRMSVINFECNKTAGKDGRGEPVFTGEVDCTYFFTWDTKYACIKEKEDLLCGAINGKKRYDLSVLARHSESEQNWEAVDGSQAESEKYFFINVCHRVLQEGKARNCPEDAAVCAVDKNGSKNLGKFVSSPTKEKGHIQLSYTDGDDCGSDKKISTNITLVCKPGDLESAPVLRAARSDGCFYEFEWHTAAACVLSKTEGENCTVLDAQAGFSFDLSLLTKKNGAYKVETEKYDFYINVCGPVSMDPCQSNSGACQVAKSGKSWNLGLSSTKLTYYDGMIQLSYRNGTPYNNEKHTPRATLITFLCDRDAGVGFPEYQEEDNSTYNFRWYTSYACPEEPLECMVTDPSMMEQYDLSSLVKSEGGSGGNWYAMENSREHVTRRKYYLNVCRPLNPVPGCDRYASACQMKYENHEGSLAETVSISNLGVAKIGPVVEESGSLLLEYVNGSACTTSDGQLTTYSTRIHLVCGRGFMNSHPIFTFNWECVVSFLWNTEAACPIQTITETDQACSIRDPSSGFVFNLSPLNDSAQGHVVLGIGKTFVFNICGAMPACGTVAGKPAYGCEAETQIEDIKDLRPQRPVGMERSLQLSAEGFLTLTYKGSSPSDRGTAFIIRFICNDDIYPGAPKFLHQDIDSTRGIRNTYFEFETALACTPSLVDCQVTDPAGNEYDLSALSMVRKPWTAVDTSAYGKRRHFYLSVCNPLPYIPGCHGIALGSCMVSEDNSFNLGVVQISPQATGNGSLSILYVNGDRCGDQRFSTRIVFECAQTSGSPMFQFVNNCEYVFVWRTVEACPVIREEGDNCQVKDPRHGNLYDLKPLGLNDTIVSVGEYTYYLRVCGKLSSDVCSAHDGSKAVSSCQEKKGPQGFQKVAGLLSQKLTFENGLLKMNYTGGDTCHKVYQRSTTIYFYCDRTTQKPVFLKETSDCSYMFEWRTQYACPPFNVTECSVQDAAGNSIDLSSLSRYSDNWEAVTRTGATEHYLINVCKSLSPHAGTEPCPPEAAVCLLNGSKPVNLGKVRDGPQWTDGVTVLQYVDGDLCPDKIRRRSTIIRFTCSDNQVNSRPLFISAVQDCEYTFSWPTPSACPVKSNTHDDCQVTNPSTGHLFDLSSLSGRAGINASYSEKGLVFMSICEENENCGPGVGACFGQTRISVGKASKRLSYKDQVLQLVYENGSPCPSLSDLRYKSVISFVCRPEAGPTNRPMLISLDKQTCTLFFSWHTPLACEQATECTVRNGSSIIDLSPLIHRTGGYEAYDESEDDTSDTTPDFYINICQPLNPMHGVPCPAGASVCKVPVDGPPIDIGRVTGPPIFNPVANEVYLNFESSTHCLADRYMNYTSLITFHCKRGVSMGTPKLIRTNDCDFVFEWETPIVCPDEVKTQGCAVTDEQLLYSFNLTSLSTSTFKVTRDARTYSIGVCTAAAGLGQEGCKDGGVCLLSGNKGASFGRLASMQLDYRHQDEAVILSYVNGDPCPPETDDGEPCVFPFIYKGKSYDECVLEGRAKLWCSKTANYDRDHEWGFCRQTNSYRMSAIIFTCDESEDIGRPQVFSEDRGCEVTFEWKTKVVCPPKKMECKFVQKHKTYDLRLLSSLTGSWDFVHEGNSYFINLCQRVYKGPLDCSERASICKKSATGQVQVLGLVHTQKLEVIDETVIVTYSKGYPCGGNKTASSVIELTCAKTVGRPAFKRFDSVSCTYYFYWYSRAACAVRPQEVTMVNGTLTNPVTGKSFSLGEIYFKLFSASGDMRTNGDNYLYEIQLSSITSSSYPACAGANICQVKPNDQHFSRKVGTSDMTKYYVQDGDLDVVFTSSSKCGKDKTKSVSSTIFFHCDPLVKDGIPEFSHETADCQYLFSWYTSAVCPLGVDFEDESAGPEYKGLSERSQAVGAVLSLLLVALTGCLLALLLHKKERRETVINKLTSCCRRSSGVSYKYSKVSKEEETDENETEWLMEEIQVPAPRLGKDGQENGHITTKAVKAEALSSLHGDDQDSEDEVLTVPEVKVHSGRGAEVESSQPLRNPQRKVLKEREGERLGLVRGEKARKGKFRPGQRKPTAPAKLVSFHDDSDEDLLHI
UniProt Q61194: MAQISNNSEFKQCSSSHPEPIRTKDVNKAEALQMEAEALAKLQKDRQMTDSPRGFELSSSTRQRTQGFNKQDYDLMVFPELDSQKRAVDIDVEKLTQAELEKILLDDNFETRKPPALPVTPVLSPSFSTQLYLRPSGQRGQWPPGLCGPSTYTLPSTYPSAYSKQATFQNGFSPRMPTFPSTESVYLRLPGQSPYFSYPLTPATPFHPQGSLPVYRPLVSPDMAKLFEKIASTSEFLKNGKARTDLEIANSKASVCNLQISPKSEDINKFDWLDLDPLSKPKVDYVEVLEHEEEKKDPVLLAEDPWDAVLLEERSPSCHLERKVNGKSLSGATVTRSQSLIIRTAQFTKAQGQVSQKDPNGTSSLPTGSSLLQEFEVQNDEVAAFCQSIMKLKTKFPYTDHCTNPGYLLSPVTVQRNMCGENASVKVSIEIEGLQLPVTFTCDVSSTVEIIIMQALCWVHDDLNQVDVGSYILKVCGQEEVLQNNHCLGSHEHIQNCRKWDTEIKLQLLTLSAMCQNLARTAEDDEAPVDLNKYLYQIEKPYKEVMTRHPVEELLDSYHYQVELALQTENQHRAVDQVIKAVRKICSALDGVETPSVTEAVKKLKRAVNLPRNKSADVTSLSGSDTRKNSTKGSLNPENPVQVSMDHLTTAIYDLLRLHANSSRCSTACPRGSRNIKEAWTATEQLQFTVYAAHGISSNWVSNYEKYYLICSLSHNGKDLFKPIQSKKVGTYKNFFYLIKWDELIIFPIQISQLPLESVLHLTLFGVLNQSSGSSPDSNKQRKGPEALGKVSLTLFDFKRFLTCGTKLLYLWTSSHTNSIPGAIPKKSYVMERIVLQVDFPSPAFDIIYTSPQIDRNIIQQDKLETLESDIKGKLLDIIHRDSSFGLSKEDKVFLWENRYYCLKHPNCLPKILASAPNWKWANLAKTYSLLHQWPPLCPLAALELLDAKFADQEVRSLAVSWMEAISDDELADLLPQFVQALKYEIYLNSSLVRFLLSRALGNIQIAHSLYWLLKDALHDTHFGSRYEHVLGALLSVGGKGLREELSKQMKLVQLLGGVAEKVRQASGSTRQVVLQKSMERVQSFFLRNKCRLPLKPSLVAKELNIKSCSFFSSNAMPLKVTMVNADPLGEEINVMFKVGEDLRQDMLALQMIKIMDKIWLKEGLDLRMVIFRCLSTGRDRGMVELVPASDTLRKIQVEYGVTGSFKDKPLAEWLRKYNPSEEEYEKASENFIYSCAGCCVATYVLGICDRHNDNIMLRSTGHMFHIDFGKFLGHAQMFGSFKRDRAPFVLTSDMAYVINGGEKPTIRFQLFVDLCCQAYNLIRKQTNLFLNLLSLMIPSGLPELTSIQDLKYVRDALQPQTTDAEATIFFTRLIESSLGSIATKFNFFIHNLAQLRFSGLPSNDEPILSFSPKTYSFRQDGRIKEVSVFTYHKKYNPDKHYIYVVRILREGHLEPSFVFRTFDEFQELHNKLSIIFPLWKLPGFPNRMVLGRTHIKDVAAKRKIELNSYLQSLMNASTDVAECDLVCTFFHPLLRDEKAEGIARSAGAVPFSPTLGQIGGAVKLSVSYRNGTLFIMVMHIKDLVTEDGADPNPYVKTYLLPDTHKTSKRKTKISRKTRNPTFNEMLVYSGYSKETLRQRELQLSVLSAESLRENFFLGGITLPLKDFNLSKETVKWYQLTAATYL
UniProt Q91VH2: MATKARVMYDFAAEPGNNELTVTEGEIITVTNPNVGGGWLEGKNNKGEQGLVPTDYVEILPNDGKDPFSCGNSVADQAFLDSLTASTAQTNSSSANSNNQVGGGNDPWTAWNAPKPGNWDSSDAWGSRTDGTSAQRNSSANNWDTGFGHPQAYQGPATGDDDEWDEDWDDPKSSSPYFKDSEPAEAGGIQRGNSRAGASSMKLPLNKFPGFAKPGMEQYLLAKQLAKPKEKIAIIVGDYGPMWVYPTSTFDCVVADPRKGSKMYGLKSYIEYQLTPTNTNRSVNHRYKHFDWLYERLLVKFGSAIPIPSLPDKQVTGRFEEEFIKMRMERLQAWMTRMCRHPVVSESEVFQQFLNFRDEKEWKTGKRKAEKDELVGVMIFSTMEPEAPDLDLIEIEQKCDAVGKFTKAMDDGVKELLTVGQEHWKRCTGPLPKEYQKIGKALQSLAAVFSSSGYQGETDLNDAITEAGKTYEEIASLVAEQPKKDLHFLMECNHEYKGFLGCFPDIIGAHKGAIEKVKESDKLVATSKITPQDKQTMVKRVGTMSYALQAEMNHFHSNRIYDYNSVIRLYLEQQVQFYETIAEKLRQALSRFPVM

Where two headings read alike, the source gives them in different places. No constants are given. Whether binding was seen depends on the method and setting. Binding seen in cells or lysates may run through a third protein. Some results given as binding are weak or reduced against the parent protein; the word gives no strength.

Common to all, as to test: co-IP
For experiment [1], the target named is K130R GFP-ATG5 (mouse) (UniProt Q99J83).
Experiment [2] deals with wild-type GFP-ATG5 (mouse) (UniProt Q99J83).
Experiment [3] deals with K130R GFP-ATG5 (mouse) (UniProt Q99J83). The source holds these as a separate data set.
Experiment [4] concerns the target wild-type GFP-ATG5 (mouse) (UniProt Q99J83). The source holds these as a separate data set.

“insulin-like growth factor 2 receptor (from UniProt Q07113 36-2483)”: the results for the binding entry (with K130R GFP-ATG5 (mouse) [1]; in experiment [2]) were “no binding” and “binds”, respectively.
On to “phosphatidylinositol 4-phosphate 3-kinase C2 domain-containing subunit alpha (from UniProt Q61194 1-1686) (enzyme)”, for which the binding entry is listed as “no binding” in the experiment with K130R GFP-ATG5 (mouse) [3], “binds” in experiment [4], “no binding” with K130R GFP-ATG5 (mouse) [1] and “binds” in experiment [2].
In the case of “sorting nexin 9 (from UniProt Q91VH2 1-595)”, the binding entry with K130R GFP-ATG5 (mouse) [1] is recorded as “no binding”.

B1: DNM2 (protein, UniProt P39054 1-870)
chain: MGNRGMEELIPLVNKLQDAFSSIGQSCHLDLPQIAVVGGQSAGKSSVLENFVGRDFLPRGSGIVTRRPLILQLIFSKTEYAEFLHCKSKKFTDFDEVRQEIEAETDRVTGTNKGISPVPINLRVYSPHVLNLTLIDLPGITKVPVGDQPPDIEYQIKDMILQFISRESSLILAVTPANMDLANSDALKLAKEVDPQGLRTIGVITKLDLMDEGTDARDVLENKLLPLRRGYIGVVNRSQKDIEGKKDIRAALAAERKFFLSHPAYRHMADRMGTPHLQKTLNQQLTNHIRESLPTLRSKLQSQLLSLEKEVEEYKNFRPDDPTRKTKALLQMVQQFGVDFEKRIEGSGDQVDTLELSGGARINRIFHERFPFELVKMEFDEKDLRREISYAIKNIHGVRTGLFTPDLAFEAIVKKQVVKLKEPCLKCVDLVIQELISTVRQCTSKLSSYPRLREETERIVTTYIREREGRTKDQILLLIDIEQSYINTNHEDFIGFANAQQRSTQLNKKRAIPNQGEILVIRRGWLTINNISLMKGGSKEYWFVLTAESLSWYKDEEEKEKKYMLPLDNLKIRDVEKGFMSNKHVFAIFNTEQRNVYKDLRQIELACDSQEDVDSWKASFLRAGVYPEKDQAENEDGAQENTFSMDPQLERQVETIRNLVDSYVAIINKSIRDLMPKTIMHLMINNTKAFIHHELLAYLYSSADQSSLMEESAEQAQRRDDMLRMYHALKEALNIIGDISTSTVSTPVPPPVDDTWLQNTSGHSPTPQRRPVSSVHPPGRPPAVRGPTPGPPLIPMPVGATSSFSAPPIPSRPGPQSVFANNDPFSAPPQIPSRPARIPPGIPPGVPSRRAPAAPSRPTIIRPAEPSLLD
As to B1, the binding result with K130R GFP-ATG5 (mouse) [1] is listed as “no binding”.

B2: DNM1 (protein, UniProt P39053 1-867)
chain: MGNRGMEDLIPLVNRLQDAFSAIGQNADLDLPQIAVVGGQSAGKSSVLENFVGRDFLPRGSGIVTRRPLVLQLVNSTTEYAEFLHCKGKKFTDFEEVRLEIEAETDRVTGTNKGISPVPINLRVYSPHVLNLTLVDLPGMTKVPVGDQPPDIEFQIRDMLMQFVTKENCLILAVSPANSDLANSDALKIAKEVDPQGQRTIGVITKLDLMDEGTDARDVLENKLLPLRRGYIGVVNRSQKDIDGKKDITAALAAERKFFLSHPSYRHLADRMGTPYLQKVLNQQLTNHIRDTLPGLRNKLQSQLLSIEKEVDEYKNFRPDDPARKTKALLQMVQQFAVDFEKRIEGSGDQIDTYELSGGARINRIFHERFPFELVKMEFDEKELRREISYAIKNIHGIRTGLFTPDMAFETIVKKQVKKIREPCLKCVDMVISELISTVRQCTKKLQQYPRLREEMERIVTTHIREREGRTKEQVMLLIDIELAYMNTNHEDFIGFANAQQRSNQMNKKKTSGNQDEILVIRKGWLTINNIGIMKGGSKEYWFVLTAENLSWYKDDEEKEKKYMLSVDNLKLRDVEKGFMSSKHIFALFNTEQRNVYKDYRQLELACETQEEVDSWKASFLRAGVYPERVGDKEKASETEENGSDSFMHSMDPQLERQVETIRNLVDSYMAIVNKTVRDLMPKTIMHLMINNTKEFIFSELLANLYSCGDQNTLMEESAEQAQRRDEMLRMYHALKEALSIIGDINTTTVSTPMPPPVDDSWLQVQSVPAGRRSPTSSPTPQRRAPAVPPARPGSRGPAPGPPPAGSALGGAPPVPSRPGASPDPFGPPPQVPSRPNRAPPGVPSLGAWRLNSPQGKHENRAGKARL
As for B2, in the experiment with K130R GFP-ATG5 (mouse) [1], the binding result is given as “no binding”.
